Test results from paper doi:10.1101/2021.06.18.448975.
Results are given in words; binding and its absence hold for the method and conditions named. Binding seen in cells or lysates may run through a third protein. For some of these results: A result given as binding can be weak or reduced; the word gives no strength. Tags and fused reporters may be left off the sequences shown.

Tests used:
[1] = molecular target: GST-myosin VI C-terminal region that starts from the MyUb; test: pull-down
GST-myosin VI SAH domain = test: pull-down
[2] = molecular target: GST-myosin VI short tail (835-1295); test: pull-down
[3] = molecular target: GFP-myosin VI short full-length; test: co-IP

B1: 3xFlag-OFD1 full length (1-1012) (protein, UniProt O75665 1-1012)
chain: MMAQSNMFTVADVLSQDELRKKLYQTFKDRGILDTLKTQLRNQLIHELMHPVLSGELQPRSISVEGSSLLIGASNSLVADHLQRCGYEYSLSVFFPESGLAKEKVFTMQDLLQLIKINPTSSLYKSLVSGSDKENQKGFLMHFLKELAEYHQAKESCNMETQTSSTFNRDSLAEKLQLIDDQFADAYPQRIKFESLEIKLNEYKREIEEQLRAEMCQKLKFFKDTEIAKIKMEAKKKYEKELTMFQNDFEKACQAKSEALVLREKSTLERIHKHQEIETKEIYAQRQLLLKDMDLLRGREAELKQRVEAFELNQKLQEEKHKSITEALRRQEQNIKSFEETYDRKLKNELLKYQLELKDDYIIRTNRLIEDERKNKEKAVHLQEELIAINSKKEELNQSVNRVKELELELESVKAQSLAITKQNHMLNEKVKEMSDYSLLKEEKLELLAQNKLLKQQLEESRNENLRLLNRLAQPAPELAVFQKELRKAEKAIVVEHEEFESCRQALHKQLQDEIEHSAQLKAQILGYKASVKSLTTQVADLKLQLKQTQTALENEVYCNPKQSVIDRSVNGLINGNVVPCNGEISGDFLNNPFKQENVLARMVASRITNYPTAWVEGSSPDSDLEFVANTKARVKELQQEAERLEKAFRSYHRRVIKNSAKSPLAAKSPPSLHLLEAFKNITSSSPERHIFGEDRVVSEQPQVGTLEERNDVVEALTGSAASRLRGGTSSRRLSSTPLPKAKRSLESEMYLEGLGRSHIASPSPCPDRMPLPSPTESRHSLSIPPVSSPPEQKVGLYRRQTELQDKSEFSDVDKLAFKDNEEFESSFESAGNMPRQLEMGGLSPAGDMSHVDAAAAAVPLSYQHPSVDQKQIEEQKEEEKIREQQVKERRQREERRQSNLQEVLERERRELEKLYQERKMIEESLKIKIKKELEMENELEMSNQEIKDKSAHSENPLEKYMKIIQQEQDQESADKSSKKMVQEGSLVDTLQSSDKVESLTGFSHEELDDSW
With B1 the binding [1] was “binds”, the binding (GST-myosin VI SAH domain) was “no binding” and the binding [2] was “binds”. The binding [3] was “binds”.
